In paper PMC7780726 one finds binding data, which are given here for 7 molecules.

Chains of the proteins cited; added tags and fusions are not shown. Lines headed by an entry give the natural chain unless they say otherwise; changes in a name come on top.
UniProt O77430: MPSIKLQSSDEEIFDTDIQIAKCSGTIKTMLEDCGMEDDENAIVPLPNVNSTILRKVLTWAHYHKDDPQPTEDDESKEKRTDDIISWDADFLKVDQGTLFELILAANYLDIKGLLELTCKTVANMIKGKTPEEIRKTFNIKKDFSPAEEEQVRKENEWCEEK
UniProt Q5BHY0: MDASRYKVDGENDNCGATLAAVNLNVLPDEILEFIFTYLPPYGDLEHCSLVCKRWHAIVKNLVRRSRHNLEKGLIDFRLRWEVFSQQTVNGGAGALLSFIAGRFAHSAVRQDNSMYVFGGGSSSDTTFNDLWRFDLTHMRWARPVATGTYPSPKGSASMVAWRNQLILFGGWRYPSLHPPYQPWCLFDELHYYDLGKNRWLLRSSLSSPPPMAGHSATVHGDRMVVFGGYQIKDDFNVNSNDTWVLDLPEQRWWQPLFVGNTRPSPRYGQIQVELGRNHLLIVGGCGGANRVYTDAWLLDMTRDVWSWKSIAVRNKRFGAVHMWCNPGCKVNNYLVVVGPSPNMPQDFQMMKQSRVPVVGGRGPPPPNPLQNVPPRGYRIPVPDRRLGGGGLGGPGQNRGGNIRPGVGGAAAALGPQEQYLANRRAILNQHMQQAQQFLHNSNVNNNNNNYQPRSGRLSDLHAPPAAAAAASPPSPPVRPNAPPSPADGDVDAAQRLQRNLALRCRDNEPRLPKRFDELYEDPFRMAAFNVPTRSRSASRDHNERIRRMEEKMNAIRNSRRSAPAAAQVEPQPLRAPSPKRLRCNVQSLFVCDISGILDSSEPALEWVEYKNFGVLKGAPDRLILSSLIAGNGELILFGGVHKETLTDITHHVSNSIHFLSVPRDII
UniProt Q24311: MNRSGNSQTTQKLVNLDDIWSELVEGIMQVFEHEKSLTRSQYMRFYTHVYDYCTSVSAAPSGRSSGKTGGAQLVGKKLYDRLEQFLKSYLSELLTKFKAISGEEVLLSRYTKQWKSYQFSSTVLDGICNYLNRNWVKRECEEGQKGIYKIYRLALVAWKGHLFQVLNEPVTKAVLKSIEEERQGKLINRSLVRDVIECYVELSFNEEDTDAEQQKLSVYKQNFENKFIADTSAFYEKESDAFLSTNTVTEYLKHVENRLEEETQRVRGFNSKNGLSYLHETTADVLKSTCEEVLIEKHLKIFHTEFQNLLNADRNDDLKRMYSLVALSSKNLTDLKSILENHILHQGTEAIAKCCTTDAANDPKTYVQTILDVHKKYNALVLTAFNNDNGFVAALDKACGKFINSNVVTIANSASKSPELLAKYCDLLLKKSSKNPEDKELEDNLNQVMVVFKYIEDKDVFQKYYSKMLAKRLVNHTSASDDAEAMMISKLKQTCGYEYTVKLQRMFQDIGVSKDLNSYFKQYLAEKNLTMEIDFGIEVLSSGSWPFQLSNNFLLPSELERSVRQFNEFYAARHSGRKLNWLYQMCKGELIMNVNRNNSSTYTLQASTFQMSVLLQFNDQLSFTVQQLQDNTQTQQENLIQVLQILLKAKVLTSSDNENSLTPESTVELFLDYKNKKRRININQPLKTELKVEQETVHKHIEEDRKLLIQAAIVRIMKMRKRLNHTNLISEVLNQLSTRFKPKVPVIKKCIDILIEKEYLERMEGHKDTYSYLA
UniProt P92177: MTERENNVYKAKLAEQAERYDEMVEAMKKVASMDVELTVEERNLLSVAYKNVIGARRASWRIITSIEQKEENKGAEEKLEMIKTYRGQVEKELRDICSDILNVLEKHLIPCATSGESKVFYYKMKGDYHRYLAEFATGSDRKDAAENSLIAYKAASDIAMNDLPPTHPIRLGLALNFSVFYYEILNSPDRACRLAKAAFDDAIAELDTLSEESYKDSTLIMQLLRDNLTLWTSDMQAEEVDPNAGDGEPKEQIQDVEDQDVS
UniProt P23696: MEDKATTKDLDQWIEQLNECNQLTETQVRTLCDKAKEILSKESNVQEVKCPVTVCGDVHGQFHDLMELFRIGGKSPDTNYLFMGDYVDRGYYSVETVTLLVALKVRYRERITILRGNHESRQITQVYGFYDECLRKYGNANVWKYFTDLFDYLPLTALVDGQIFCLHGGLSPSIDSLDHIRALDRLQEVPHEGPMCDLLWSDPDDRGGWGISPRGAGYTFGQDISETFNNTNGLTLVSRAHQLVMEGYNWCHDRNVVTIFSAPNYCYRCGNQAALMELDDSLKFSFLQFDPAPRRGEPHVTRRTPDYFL

Where two headings read alike, the source gives them in different places. No constants are given. Whether binding was seen depends on the method and setting. In cells and extracts the contact can be indirect. These calls come from enrichment with a bait or labelling near it, and not all partners need be listed.

What all share (test): affinity purification with mass spectrometry; GFP-tagged SCF component immunoprecipitated from lysate of dissected Drosophila ovaries with GFP-MA trap beads (anti-GFP nanobody), 30 min at 4°C, 20 mM Tris-HCl pH 7.5, 50 mM NaCl, 5 mM EGTA, 0.5% Triton X-100; label-free quantitative mass spectrometry against ovaries expressing GFP alone
For test [1], the target named is SkpA fused with GFP (GFP-SkpA) (Drosophila) (UniProt O77430).
Test [2] concerns the target GFP-CG6758/Fbxo42 (Drosophila) (UniProt Q5BHY0).
The target is the same in test [3]. The source holds these as a separate data set.
The target of test [4] is SkpA fused with GFP (GFP-SkpA) (Drosophila) (UniProt O77430). The source holds these as a separate data set.

CG6758/Fbxo42 (from UniProt Q5BHY0): the binding result in test [1] is recorded as “binds”.

For the molecule Cul1 (from UniProt Q24311 1-774), the binding entry in test [1] was “binds”. As for 14-3-3ε (from UniProt P92177 1-262), the binding entry in test [2] is “binds”. Consider “catalytic (C) subunit of protein phosphatase 2A (PP2A) (from UniProt P23696 1-309)”, for which, in test [2], the binding entry is recorded as “binds”.

B1: structural (A) subunit of protein phosphatase 2A (PP2A) (protein, UniProt P36179 1-591)
chain: MAASDKSVDDSLYPIAVLIDELKNEDVQLRLNSIKKLSTIALALGEERTRSELIPFLTETIYDEDEVLLALADQLGNFTSLVGGPEFAMYLIPPLESLATVEETVVRDKAVESLRTVAAEHSAQDLEIHVVPTLQRLVSGDWFTSRTSACGLFSVCYPRVTQPVKAELRANFRKLCQDETPMVRRAAANKLGEFAKVVETEYLKSDLIPNFVQLAQDDQDSVRLLAVEACVSIAQLLPQDDVEHLVLPTLRQCASDSSWRVRYMVAEKFVDLQKAVGPEITRVDLVPAFQYLLKDAEAEVRAAVATKVKDFCANLDKVNQVQIILSSILPYVRDLVSDPNPHVKSALASVIMGLSPMLGAYQTVEQLLPLFLIQLKDECPEVRLNIISNLDCVNDVIGIQQLSQSLLPAIVELAEDSKWRVRLAIIEYMPALAGQLGQEFFDQKLRGLCMGWLNDHVYAIREAATLNMKKLVEQFGAPWAEQAIIPMILVMSRNKNYLHRMTCLFCLNVLAEVCGTDITTKLLLPTVLLLAADPVANVRFNVAKTLQKISPFLEASVIDAQVKPTLDKLNTDTDVDVKHFAAQAIAGIAAA
With B1, in test [3], the binding result is “binds”.

B2: 14-3-3ζ (protein, UniProt P29310 1-248)
chain: MSTVDKEELVQKAKLAEQSERYDDMAQAMKSVTETGVELSNEERNLLSVAYKNVVGARRSSWRVISSIEQKTEASARKQQLAREYRERVEKELREICYEVLGLLDKYLIPKASNPESKVFYLKMKGDYYRYLAEVATGDARNTVVDDSQTAYQDAFDISKGKMQPTHPIRLGLALNFSVFYYEILNSPDKACQLAKQAFDDAIAELDTLNEDSYKDSTLIMQLLRDNLTLWTSDTQGDEAEPQEGGDN
As for B2, the binding result in test [3] is “binds”.

B3: Slmb/βTrcp (protein, UniProt Q9VDE3 1-510)
chain: MMKMETDKIMDETNSNAQAFTTTMLYDPVRKKDSSPTYQTERELCFQYFTQWSESGQVDFVEHLLSRMCHYQHGQINAYLKPMLQRDFITLLPIKGLDHIAENILSYLDAESLKSSELVCKEWLRVISEGMLWKKLIERKVRTDSLWRGLAERRNWMQYLFKPRPGQTQRPHSFHRELFPKIMNDIDSIENNWRTGRHMLRRINCRSENSKGVYCLQYDDGKIVSGLRDNTIKIWDRTDLQCVKTLMGHTGSVLCLQYDDKVIISGSSDSTVRVWDVNTGEMVNTLIHHCEAVLHLRFNNGMMVTCSKDRSIAVWDMTSPSEITLRRVLVGHRAAVNVVDFDEKYIVSASGDRTIKVWSTSSCEFVRTLNGHKRGIACLQYRDRLVVSGSSDNSIRLWDIECGACLRVLEGHEELVRCIRFDTKRIVSGAYDGKIKVWDLVAALDPRAASNTLCLNTLVEHTGRVFRLQFDEFQIVSSSHDDTILIWDFLNFTPNENKTGRTPSPALMEH
Take B3: the binding entry in test [4] is on record as “binds”.
